Reference: PMC4838890, “Dynamic and flexible H3K9me3 bridging via HP1β dimerization establishes a plastic state of condensed chromatin” (Nature Communications, 2016)

How the values were obtained:
H3KC9me3 mononucleosome = experiment: ITC, H3KC9me3 mononucleosome; assay type: binding, Xenopus laevis; conditions: pH 7.5, 25°C
Excerpt: Mononucleosomes were reconstituted on a 187 bp DNA fragment containing the ‘601' sequence flanked on each site by a linker of 20 bp[55]. Oligonucleosomes were reconstituted on a 12 × 200 bp × 601 template. Plasmids carrying the respective inserts were purified using a Giga kit (Qiagen, Hilden, Germany). Templates for reconstitution were released from plasmids by restriction digest with BsoBI for mononucleosomes and a mix of DdeI, BfuCI, HaeII and EcoRI for oligonucleosomes. To separate vector backbone from DNA used for chromatin assembly stepwise precipitation with polyethylene glycol (PEG) 6000/0.5 M NaCl was carried out (final PEG concentration 2–9% and 20% (w/v)). DNA pellets were washed with 70% (v/v) ethanol and dissolved in water. Double stranded, short, biotinylated DNA linkers were ligated to the DNA template before chromatin reconstitution.
(§1) ITC measurements were performed on a iTC200 calorimeter (Microcal, Malvern, UK) at 25°C in binding buffer (10 mM triethanolamine (pH 7.5), 20 or 150 mM NaCl, 0.1 mM EDTA). Reaction heats were recorded by sequences of 37 injections of 1.8 mM hHP1β, spaced at 120 s intervals, into 250 μl of 60 μM H3 peptides, nucleosomes or oligonucleosomal arrays under constant stirring at 1,000 r.p.m. (injection #1–10: 0.5 μl each; injection #11–32: 1 μl each; injection #33–37: 2 μl each). Heats of dilution, obtained by the titration of hHP1β into buffer, were substracted from raw data before analysis. Raw data were integrated, normalized and the apparent heat change (Δq) of the reaction was plotted against the molecular ratio using the Origin software. For the determination of apparent enthalpy changes (ΔHapp), the molar association constant (KA), and the stoichiometry (n) of the interaction, non-linear least-square fitting of the Δq values was performed by the Origin software using a binding model of one set of identical binding sites.
Supplementary Table 1: Summary of conditions used in the different experiments of this study.
experiment result modification template Temp. [NaCl] [MgCl2] […]

H3KC9me3 peptide = experiment: ITC, H3KC9me3 peptide; assay type: binding; conditions: pH 7.5, 25°C
Method: as §1
Supplementary Table 1: Summary of conditions used in the different experiments of this study. experiment result modification template Temp. [NaCl] [MgCl2] […]
chromatin Fig. 1e,f; Fig. S1f-h; H3K9me3 oligo- 4 150 5 coprecipitation Fig. S2b nucleosomes
Fig. S7d,f; Fig.S9c nucleosomes […]
chromatin sedimentation Fig. 4a; H3K9me3 oligo- 4 150 0 […]

“hHP1β I161A: CSD point mutant of hHP1β incapable of dimerization” was tested, and the “N (stoichiometry of interaction)” value (H3KC9me3 mononucleosome; 20 mM NaCl) was 1.1±0.4 and the “N (stoichiometry of interaction)” value (H3KC9me3 mononucleosome; 150 mM NaCl) was 1.2±0.3.

“hHP1β WT: recombinant human heterochromatin protein 1β (GenBank NM_001127228), 185 aa” was tested, and the “N (stoichiometry of interaction)” value (H3KC9me3 peptide; 20 mM NaCl) was 1.0±0.0, the “N (stoichiometry of interaction)” value (H3KC9me3 peptide; 150 mM NaCl) was 1.0±0.1 and the “N (stoichiometry of interaction)” value (H3KC9me3 mononucleosome; 20 mM NaCl) was 2.1±0.3. For the same substance, the “N (stoichiometry of interaction)” value (H3KC9me3 mononucleosome; 150 mM NaCl) was 1.4±0.3.
